In the supplement of paper PMC10849652:
The other results are listed elsewhere or left out.

By UniProt entry, the sequences of proteins in these tests, tags left out. Where a name states a change or a piece, a line headed by the entry shows the natural chain unless it says otherwise.
UniProt O95394: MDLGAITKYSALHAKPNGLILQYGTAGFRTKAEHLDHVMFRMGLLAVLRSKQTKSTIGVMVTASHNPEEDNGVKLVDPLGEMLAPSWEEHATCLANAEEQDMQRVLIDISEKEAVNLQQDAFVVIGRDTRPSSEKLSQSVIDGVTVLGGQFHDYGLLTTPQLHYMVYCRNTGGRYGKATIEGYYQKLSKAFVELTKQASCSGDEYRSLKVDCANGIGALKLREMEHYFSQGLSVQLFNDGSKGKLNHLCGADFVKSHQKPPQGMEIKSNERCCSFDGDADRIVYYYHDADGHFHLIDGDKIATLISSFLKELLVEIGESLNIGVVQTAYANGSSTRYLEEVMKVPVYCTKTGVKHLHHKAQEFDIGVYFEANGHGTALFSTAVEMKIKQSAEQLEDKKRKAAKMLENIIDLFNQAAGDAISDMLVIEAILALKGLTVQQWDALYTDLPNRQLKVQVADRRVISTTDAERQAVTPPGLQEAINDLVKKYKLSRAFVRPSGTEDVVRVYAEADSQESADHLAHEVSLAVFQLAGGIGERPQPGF
UniProt Q9C010: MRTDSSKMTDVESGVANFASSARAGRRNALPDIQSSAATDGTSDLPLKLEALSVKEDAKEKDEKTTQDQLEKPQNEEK
UniProt Q9UG56: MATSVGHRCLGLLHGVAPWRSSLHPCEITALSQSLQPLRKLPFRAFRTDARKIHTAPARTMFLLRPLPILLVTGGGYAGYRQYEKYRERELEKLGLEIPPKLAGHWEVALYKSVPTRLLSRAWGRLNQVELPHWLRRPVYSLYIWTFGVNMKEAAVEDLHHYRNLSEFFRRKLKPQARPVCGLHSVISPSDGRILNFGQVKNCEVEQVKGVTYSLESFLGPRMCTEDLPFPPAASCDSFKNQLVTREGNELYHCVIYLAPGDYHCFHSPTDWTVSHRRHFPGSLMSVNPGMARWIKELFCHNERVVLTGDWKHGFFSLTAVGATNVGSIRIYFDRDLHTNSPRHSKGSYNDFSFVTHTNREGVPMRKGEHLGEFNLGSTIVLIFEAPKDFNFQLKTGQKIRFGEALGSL
UniProt Q9H814, whole entry, looked up: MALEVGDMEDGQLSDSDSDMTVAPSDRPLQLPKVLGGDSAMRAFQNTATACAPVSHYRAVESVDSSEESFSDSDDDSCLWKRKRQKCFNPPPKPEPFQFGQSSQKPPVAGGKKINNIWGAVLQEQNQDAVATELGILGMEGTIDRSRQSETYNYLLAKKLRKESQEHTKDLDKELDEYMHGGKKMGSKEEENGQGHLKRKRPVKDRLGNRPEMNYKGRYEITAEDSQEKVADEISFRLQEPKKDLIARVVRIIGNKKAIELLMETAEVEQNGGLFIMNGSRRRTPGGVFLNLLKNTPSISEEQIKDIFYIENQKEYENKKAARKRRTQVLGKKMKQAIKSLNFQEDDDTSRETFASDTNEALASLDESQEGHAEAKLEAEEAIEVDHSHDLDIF
UniProt P14618, whole entry, looked up: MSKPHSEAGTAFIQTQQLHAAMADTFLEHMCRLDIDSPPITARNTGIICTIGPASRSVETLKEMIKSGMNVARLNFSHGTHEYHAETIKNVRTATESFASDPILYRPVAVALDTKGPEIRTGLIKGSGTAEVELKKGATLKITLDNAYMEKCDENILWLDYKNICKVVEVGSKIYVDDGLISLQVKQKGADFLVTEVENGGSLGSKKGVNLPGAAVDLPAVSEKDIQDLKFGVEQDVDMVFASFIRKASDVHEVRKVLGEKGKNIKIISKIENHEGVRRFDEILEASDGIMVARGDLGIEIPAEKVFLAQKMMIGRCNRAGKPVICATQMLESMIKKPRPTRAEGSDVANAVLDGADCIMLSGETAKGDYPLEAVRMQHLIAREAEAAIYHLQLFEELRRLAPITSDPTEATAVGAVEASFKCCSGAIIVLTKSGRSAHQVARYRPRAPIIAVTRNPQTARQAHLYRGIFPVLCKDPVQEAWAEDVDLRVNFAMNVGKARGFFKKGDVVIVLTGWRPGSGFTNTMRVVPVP
UniProt O60925, whole entry, looked up: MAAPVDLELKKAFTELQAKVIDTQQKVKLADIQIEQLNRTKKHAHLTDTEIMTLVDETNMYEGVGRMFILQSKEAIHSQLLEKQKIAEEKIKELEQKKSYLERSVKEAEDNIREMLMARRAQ
UniProt Q9NXJ5: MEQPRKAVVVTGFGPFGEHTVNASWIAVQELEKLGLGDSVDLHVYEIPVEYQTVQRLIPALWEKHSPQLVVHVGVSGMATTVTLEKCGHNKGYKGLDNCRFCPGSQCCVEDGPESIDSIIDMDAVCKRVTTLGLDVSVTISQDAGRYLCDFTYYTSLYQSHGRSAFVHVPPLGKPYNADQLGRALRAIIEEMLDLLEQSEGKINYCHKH
UniProt Q86T03: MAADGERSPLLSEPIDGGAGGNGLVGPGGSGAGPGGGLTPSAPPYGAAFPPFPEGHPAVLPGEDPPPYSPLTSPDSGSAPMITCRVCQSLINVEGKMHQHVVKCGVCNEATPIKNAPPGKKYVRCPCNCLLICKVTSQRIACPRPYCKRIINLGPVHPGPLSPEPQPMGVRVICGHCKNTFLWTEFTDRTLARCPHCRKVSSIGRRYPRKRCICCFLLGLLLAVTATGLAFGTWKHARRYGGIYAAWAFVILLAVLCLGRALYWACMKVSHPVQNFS
UniProt Q16512: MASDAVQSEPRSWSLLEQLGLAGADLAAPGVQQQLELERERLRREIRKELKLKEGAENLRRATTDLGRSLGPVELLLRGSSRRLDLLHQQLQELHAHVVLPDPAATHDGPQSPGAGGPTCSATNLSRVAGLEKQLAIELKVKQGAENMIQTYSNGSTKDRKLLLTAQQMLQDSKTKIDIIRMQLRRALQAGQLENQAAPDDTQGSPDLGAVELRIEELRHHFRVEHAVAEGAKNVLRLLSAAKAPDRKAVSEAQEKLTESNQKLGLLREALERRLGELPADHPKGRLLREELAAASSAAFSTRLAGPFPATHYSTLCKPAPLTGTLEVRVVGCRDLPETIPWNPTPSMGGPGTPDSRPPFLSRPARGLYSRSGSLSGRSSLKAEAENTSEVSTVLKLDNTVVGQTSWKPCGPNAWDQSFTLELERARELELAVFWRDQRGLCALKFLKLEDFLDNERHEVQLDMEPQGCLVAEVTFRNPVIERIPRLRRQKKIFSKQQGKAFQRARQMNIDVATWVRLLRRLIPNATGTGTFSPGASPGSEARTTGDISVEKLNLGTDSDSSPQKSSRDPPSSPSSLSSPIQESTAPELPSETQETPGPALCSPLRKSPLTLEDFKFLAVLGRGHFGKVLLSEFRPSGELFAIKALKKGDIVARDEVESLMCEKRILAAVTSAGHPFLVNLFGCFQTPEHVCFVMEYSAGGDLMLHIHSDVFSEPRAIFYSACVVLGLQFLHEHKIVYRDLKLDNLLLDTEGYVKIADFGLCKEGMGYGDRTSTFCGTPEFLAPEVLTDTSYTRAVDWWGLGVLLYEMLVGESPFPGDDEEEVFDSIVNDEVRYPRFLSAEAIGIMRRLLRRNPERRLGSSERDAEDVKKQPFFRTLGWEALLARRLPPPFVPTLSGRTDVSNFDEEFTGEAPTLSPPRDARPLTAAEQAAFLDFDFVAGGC
UniProt P15735: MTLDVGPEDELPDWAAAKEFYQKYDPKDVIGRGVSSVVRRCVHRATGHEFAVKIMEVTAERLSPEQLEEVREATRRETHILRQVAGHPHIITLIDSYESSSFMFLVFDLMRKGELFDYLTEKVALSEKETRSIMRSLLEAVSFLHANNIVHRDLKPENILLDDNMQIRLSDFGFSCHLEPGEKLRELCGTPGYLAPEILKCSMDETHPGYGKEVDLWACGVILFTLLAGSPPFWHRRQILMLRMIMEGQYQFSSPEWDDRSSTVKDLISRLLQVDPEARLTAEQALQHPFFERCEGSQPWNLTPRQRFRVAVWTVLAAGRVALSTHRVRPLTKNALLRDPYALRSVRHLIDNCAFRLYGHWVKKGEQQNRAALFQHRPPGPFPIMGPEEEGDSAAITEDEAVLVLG
UniProt Q969N2: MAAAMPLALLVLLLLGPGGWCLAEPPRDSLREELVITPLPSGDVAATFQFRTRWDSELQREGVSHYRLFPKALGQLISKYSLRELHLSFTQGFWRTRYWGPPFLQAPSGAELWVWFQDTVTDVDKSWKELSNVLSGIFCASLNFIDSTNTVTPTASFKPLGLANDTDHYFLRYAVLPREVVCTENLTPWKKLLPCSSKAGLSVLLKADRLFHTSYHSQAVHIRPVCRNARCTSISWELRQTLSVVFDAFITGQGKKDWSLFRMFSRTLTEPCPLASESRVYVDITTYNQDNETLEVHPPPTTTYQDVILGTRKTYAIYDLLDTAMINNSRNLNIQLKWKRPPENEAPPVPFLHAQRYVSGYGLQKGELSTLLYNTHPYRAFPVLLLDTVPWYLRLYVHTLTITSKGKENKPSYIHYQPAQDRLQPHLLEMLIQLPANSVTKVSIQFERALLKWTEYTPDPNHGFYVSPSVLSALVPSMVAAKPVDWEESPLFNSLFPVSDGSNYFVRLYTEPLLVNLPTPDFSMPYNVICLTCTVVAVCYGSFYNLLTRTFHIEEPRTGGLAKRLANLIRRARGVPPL
UniProt Q01970, whole entry, looked up: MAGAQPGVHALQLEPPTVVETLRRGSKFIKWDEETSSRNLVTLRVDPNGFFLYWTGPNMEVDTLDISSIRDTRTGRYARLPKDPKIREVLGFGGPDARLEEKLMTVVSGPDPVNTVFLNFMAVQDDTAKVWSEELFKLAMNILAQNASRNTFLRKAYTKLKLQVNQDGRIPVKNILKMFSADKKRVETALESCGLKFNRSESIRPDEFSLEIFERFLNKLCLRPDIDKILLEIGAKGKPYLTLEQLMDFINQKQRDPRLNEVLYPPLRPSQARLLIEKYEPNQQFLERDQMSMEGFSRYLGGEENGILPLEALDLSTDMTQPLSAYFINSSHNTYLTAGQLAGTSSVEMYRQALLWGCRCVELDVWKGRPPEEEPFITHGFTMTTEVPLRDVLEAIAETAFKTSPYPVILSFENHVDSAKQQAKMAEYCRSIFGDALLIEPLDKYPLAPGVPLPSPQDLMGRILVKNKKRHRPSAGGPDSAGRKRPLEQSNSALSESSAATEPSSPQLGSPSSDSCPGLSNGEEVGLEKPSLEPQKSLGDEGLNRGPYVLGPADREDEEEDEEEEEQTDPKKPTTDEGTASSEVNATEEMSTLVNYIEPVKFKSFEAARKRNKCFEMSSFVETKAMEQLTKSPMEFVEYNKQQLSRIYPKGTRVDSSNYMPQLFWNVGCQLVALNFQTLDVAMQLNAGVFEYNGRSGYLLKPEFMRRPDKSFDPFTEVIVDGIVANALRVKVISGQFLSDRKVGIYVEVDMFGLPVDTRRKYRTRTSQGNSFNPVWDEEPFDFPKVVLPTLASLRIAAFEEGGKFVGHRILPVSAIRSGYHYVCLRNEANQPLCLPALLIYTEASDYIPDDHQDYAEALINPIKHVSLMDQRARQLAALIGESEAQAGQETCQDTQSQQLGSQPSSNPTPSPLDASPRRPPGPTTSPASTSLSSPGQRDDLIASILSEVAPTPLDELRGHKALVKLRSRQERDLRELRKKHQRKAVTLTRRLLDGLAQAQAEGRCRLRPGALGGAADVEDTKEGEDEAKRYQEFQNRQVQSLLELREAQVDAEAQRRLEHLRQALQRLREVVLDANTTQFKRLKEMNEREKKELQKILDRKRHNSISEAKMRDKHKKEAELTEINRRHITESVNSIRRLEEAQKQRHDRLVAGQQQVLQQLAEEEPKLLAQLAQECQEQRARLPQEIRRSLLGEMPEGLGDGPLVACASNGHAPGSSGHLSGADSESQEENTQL
UniProt O00628: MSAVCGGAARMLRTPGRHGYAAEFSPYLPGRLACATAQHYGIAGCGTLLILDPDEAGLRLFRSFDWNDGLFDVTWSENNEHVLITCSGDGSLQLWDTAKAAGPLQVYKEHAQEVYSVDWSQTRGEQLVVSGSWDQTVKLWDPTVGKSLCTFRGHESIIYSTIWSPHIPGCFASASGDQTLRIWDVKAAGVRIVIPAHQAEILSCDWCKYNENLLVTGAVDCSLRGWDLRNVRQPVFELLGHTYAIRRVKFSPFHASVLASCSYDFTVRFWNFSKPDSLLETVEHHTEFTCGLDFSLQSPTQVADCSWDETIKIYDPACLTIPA
UniProt Q92521: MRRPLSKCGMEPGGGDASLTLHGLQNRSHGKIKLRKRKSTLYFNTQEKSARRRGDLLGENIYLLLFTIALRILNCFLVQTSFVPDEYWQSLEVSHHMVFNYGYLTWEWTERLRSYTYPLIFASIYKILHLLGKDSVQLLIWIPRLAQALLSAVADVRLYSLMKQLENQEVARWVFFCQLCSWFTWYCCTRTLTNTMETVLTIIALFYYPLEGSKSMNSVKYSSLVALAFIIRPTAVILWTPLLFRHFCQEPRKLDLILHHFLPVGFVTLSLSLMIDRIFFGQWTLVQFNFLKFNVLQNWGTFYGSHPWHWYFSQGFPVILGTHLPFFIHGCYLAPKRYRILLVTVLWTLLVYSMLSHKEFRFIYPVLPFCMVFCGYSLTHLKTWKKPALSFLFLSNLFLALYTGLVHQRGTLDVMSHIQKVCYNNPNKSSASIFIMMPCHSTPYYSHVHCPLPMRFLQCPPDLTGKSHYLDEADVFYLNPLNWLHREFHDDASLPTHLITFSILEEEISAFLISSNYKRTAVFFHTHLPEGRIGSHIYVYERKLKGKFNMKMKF

Tests used:
Assay in all cases: log2 fold change, soluble protein after heating vs DMSO (PISA); higher = thermal stabilisation; K562 cells, 10 uM, 30 min; active = over 0.2 and 3.5 SD of the protein, either way, in both replicates (recomputed)
[1] = compound: CC[C@@H]1C(=O)N(C)c2cnc(Nc3ccc(C(=O)NC4CCN(C)CC4)cc3OC)nc2N1C1CCCC1
In short: (§1)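 Aliquots of K562 cells (2×10^6 cells/mL) treated with 10 μM compound for 30 min were heated for 3 min over 48°C-58°C. After pooling and extraction in PBS with 0.5% NP-40 at 4°C, soluble protein from a 21,000xg, 90 min spin was quantified by TMTpro 16plex LC-MS/MS with channel sums equalised. Thermal stability is expressed against control samples, from duplicates, as a log2 fold change.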

volasertib = compound: CC[C@@H]1C(=O)N(C)c2cnc(Nc3ccc(C(=O)N[C@H]4CC[C@H](N5CCN(CC6CC6)CC5)CC4)cc3OC)nc2N1C(C)C [volasertib]
In short: as §1

[2] = compound: CC[C@H](C)N1C=C(C2=C(C=C(C=C21)C3=CN=C(C=C3)N4CCNCC4)C(=O)NCC5=C(C=C(NC5=O)C)C)C
In short: as §1

epoxomicin = compound: CC[C@H](C)[C@@H](C(=O)N[C@@H]([C@@H](C)O)C(=O)N[C@@H](CC(C)C)C(=O)[C@]1(CO1)C)NC(=O)[C@H]([C@@H](C)CC)N(C)C(=O)C [epoxomicin]
In short: as §1

[3] = compound: CCn1cc(-c2ccnc3[nH]c(-c4cccc(CN(C)C)c4)cc23)c(-c2ccc(NC(=O)N(C)C)cc2)n1
In short: as §1

[4] = compound: CN(C)CC(=O)Nc1ccc2[nH]c(=O)c3ccccc3c2c1
In short: as §1

[5] = compound: CN1C2=C(C3=C1C(=O)N(N=C3)CC4=CC(=CC=C4)N)SC(=C2)S(=O)C
In short: as §1

[6] = compound: CN1CCC(CNc2ccc3ncc(-c4cccc(OC(F)(F)F)c4)n3n2)CC1
In short: as §1

rosiglitazone = compound: CN(CCOC1=CC=C(C=C1)C[C@H]2C(=O)NC(=O)S2)C3=CC=CC=N3 (racemic) [rosiglitazone]
In short: as §1

[7] = compound: CCn1c(C(=O)N(C2CC2)C2CC2)cc2c3c(ncn3C)c(Nc3cc(C)n(C)n3)nc21
In short: as §1

Measured: log2 fold change

PLA2G15 (UniProt Q8NCC3)
inactive: [1] -0.084 | volasertib -0.166 | [2] 0.026 | epoxomicin 0.01 | [3] 0.005 | [4] 0.006 | [5] 0.043 | [6] -0.076

PIP4K2B (UniProt P78356)
inactive: [2] -0.089 | epoxomicin 0.015 | [3] -0.054 | [4] 0.029 | [5] 0.172 | [6] 0.231
active: [1] 0.573 | volasertib 0.776

PKP3 isoform 2 (UniProt Q9Y446)
inactive: [1] 0.199 | volasertib -0.238 | epoxomicin -0.014 | [3] 0.04 | [4] 0.072 | rosiglitazone 0.06 | [5] 0.288 | [6] -0.077

PLCG1 isoform 2 (UniProt P19174)
active: [6] -0.412
inactive: [1] -0.031 | volasertib -0.25 | [2] 0.05 | epoxomicin 0.014 | [3] -0.187 | [4] 0.085 | [5] 0.083

PIKFYVE (UniProt Q9Y2I7)
active: volasertib -0.499
inactive: [1] -0.182 | [2] 0.103 | epoxomicin -0.031 | [3] -0.032 | [4] 0.032 | [5] -0.05 | [6] -0.239

PEX16 isoform 2 (UniProt Q9Y5Y5)
inactive: [1] -0.065 | volasertib -0.138 | [2] -0.013 | epoxomicin -0.024 | [3] 0.033 | [4] 0.013 | [5] -0.127 | [6] -0.124

PGM3 isoform 4 (UniProt O95394)
active: [6] -0.235
inactive: [1] 0.003 | volasertib 0.052 | [2] 0.092 | epoxomicin 0.014 | [3] -0.038 | [4] 0.026 | [5] -0.084

PKIB isoform 2 (UniProt Q9C010)
inactive: [1] 0.278 | volasertib -0.024 | [7] 0.002 | [3] -0.05 | [6] -0.037

2 successive entries already listed, quoted:
PGM3 isoform 4 (UniProt O95394)
active: [6] -0.235
inactive: [1] 0.003 | volasertib 0.052 | [2] 0.092 | epoxomicin 0.014 | [3] -0.038 | [4] 0.026 | [5] -0.084

PKIB isoform 2 (UniProt Q9C010)
inactive: [1] 0.278 | volasertib -0.024 | [7] 0.002 | [3] -0.05 | [6] -0.037

Next results

PISD (UniProt Q9UG56)
inactive: [1] -0.136 | volasertib -0.117 | [2] -0.017 | epoxomicin -0.002 | [3] -0.076 | [4] -0.113 | [5] -0.036 | [6] -0.192

PIGG (UniProt Q5H8A4)
inactive: [1] -0.062 | volasertib 0.022 | [2] 0.037 | epoxomicin -0.017 | [3] -0.022 | [4] 0.009 | [5] -0.04 | [6] 0.093

PIP4K2A (UniProt P48426)
active: [1] 0.602 | volasertib 0.768
inactive: [2] -0.055 | epoxomicin 0.018 | [3] -0.052 | [4] -0.021 | [5] 0.04 | [6] 0.114

PHAX (UniProt Q9H814)
inactive: [1] -0.03 | volasertib -0.106 | [2] 0.027 | epoxomicin -0.041 | [3] 0.111 | [4] 0.011 | [5] -0.054 | [6] 0.042

PKM isoform 2 (UniProt P14618)
inactive: [1] 0 | volasertib 0.091 | [2] 0.018 | epoxomicin 0.29 | [3] -0.006 | [4] 0.053 | [5] -0.184 | [6] -0.046

PFDN1 (UniProt O60925)
inactive: [1] 0.044 | volasertib -0.009 | [2] -0.004 | epoxomicin 0.183 | [3] -0.019 | [4] 0 | [5] -0.119 | [6] 0.113

PIGM (UniProt Q9H3S5)
inactive: [1] -0.267 | [2] -0.07 | [7] -0.047 | [4] -0.244 | rosiglitazone -0.063 | [5] 0.034

PJA2 (UniProt O43164)
inactive: [1] -0.007 | volasertib 0.001 | [2] 0.014 | epoxomicin 0.202 | [3] 0.066 | [4] -0.051 | [5] -0.001 | [6] -0.156

PGPEP1 (UniProt Q9NXJ5)
inactive: [1] 0.179 | volasertib -0.204 | epoxomicin 0.048 | [7] -0.04 | [4] -0.24 | rosiglitazone 0.093 | [5] -0.236

PIGQ (UniProt Q9BRB3)
inactive: [1] -0.106 | [2] -0.077 | epoxomicin -0.265 | [7] 0.203 | [3] -0.069 | [4] 0.064 | rosiglitazone 0.082 | [5] 0.216 | [6] 0.034

PI4K2A (UniProt Q9BTU6)
inactive: [1] -0.075 | volasertib -0.081 | [2] 0.009 | epoxomicin 0.027 | [3] -0.023 | [4] -0.014 | [5] 0.009 | [6] -0.146

PIP4P1 isoform 2 (UniProt Q86T03)
inactive: [1] -0.058 | volasertib 0.112 | [2] -0.003 | epoxomicin 0.008 | [3] -0.074 | [4] -0.012 | [5] 0.076 | [6] -0.262

PHF10 (UniProt Q8WUB8)
inactive: [1] 0.059 | volasertib -0.234 | epoxomicin -0.11 | [7] 0.013 | [3] -0.049 | [4] 0.052 | rosiglitazone -0.021 | [5] -0.106 | [6] -0.045

PKN1 isoform 2 (UniProt Q16512)
inactive: [1] 0.005 | volasertib -0.105 | [2] 0.084 | epoxomicin 0.014 | [3] -0.038 | [4] 0.009 | [5] -0.021
active: [6] -0.772

PHKG2 (UniProt P15735)
inactive: [1] -0.155 | volasertib -0.195 | [2] 0.054 | epoxomicin -0.004 | [3] 0.043 | [4] -0.002 | [5] -0.027 | [6] -0.156

PLD3 (UniProt Q8IV08)
active: [1] -0.369 | volasertib -0.437 | [6] -0.488
inactive: [2] -0.038 | epoxomicin 0.041 | [3] 0.035 | [4] 0.014 | [5] -0.027

PLCL1 (UniProt Q15111)
inactive: [1] -0.018 | [2] 0.232 | epoxomicin -0.034 | [3] 0.311 | [4] 0.035 | [6] -0.094

PIGT (UniProt Q969N2)
inactive: [1] 0.02 | volasertib -0.118 | [2] 0.035 | epoxomicin -0.011 | [3] -0.046 | [4] 0.013 | [5] 0.015 | [6] 0.081

PHLDB1 isoform 2 (UniProt Q86UU1)
active: [6] -0.585
inactive: [1] -0.03 | volasertib -0.222 | [2] -0.06 | epoxomicin 0.061 | [3] -0.04 | [4] -0.034 | [5] -0.022

PIGL (UniProt Q9Y2B2)
inactive: [1] 0.001 | [2] 0.049 | epoxomicin 0.011 | [7] 0.058 | [3] -0.031 | [4] -0.052 | rosiglitazone 0.033 | [5] -0.058 | [6] 0.042

PFN3 (UniProt P60673)
inactive: [1] 0.075 | volasertib 0.069 | epoxomicin -0.306 | [3] -0.08 | [4] 0.001 | [5] 0.321 | [6] -0.338

PLCB3 (UniProt Q01970)
inactive: [1] -0.05 | volasertib -0.037 | [2] 0.044 | epoxomicin 0.009 | [3] -0.08 | [4] 0.02 | [5] -0.009
active: [6] -0.246

PEX7 (UniProt O00628)
inactive: [1] 0.038 | volasertib 0.005 | [2] -0.027 | epoxomicin 0.075 | [3] -0.01 | [4] 0.091 | [5] -0.067 | [6] 0.023

PHKA1 (UniProt P46020)
inactive: [1] 0.042 | volasertib -0.367 | [2] 0.076 | epoxomicin -0.039 | [3] 0.143 | [5] 0.112 | [6] -0.045

PIK3C3 (UniProt Q8NEB9)
inactive: [1] 0.16 | volasertib 0.153 | [2] 0.023 | epoxomicin -0.071 | [3] -0.117 | [4] -0.03 | [5] 0.025 | [6] 0.015

PIGB (UniProt Q92521)
inactive: [1] -0.229 | volasertib 0.013 | epoxomicin 0.028 | [7] 0.007 | [3] 0.058 | [5] -0.175 | [6] -0.043
